Values from PubChem BioAssay AID1259405 (NCATS, 2018).
Shown is an unselected part of about 50,000 deposited reagents. Of all reagents, about 4,000 (8%) are marked active. 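Mouse siRNA library applied to hamster cells; one well for each siRNA.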 Unmarked entries are inactive. The numbers tell different reagents against one gene apart.

- Assay: 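Mouse-designed siRNAs used to find CHO productivity engineering targets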 (primary screen)
- Cells: Chinese hamster CHO-K1 ovary cells with stable secreted eGFP expression
- Knock-down reagent: single siRNA against mouse genes, 0.8 pmol siRNA per well (2 µl of 400 nM stock)
- Duration: 3 days
- Measured: 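Per-well intracellular GFP measured by laser scanning cytometry, plus viability from ATP luminescence, each relative to plate median of non-targeting control wells, in %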
- Direction: GFP, % of control: higher = more GFP per well, higher productivity; viability (ATP), % of control: higher = more viable cells (more ATP)
- Active means: 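Called active when intracellular GFP, relative to negative control, is at or above 120%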

no.	gene	reagent	GFP, % of control	viability (ATP), % of control
1	Pramel3a (PRAME like 3A)	1	76.8	85.1
2	Pramel3a (PRAME like 3A)	2	94.7	74.1
3	Pramel3a (PRAME like 3A)	3	93.6	154
4	Ddx6 (DEAD-box helicase 6)	1	91.8	67.2
5	Ddx6 (DEAD-box helicase 6)	2	102	117
6	Ddx6 (DEAD-box helicase 6)	3	79.7	96.7
7	Pld2 (phospholipase D2)	1	92.5	80.7
8	Pld2 (phospholipase D2)	2	80	79.9
9	Pld2 (phospholipase D2)	3	83	92.1
10	Amigo2 (adhesion molecule with Ig like domain 2)	1	90.4	87.9
11	Amigo2 (adhesion molecule with Ig like domain 2)	2	130 (active)	77.7
12	Amigo2 (adhesion molecule with Ig like domain 2)	3	127 (active)	83.1
13	Cmklr2 (chemerin chemokine-like receptor 2)	1	46.8	30.6
14	Cmklr2 (chemerin chemokine-like receptor 2)	2	72.8	60
15	Cmklr2 (chemerin chemokine-like receptor 2)	3	69.8	61.1
16	Grb7 (growth factor receptor bound protein 7)	1	42.9	60.1
17	Grb7 (growth factor receptor bound protein 7)	2	75.2	89.2
18	Grb7 (growth factor receptor bound protein 7)	3	62.9	50.7
19	Nova2 (NOVA alternative splicing regulator 2)	1	65.6	54.8
20	Nova2 (NOVA alternative splicing regulator 2)	2	134 (active)	90.1
21	Calm1 (calmodulin 1)	1	120 (active)	103
22	Calm1 (calmodulin 1)	2	71.6	69.4
23	Entpd6 (ectonucleoside triphosphate diphosphohydrolase 6)	1	46	44.5
24	Entpd6 (ectonucleoside triphosphate diphosphohydrolase 6)	2	79	82.9
25	Entpd6 (ectonucleoside triphosphate diphosphohydrolase 6)	3	66.9	47.6
26	Nim1k (NIM1 serine/threonine protein kinase)	1	117	78.5
27	Nim1k (NIM1 serine/threonine protein kinase)	2	80.1	73.6
28	Nim1k (NIM1 serine/threonine protein kinase)	3	86.7	96
29	Preb (prolactin regulatory element binding)	1	79	67.8
30	Preb (prolactin regulatory element binding)	2	97	64
31	Preb (prolactin regulatory element binding)	3	64.1	88.7
32	Rps12 (ribosomal protein S12)	1	31.8	16.4
33	Rps12 (ribosomal protein S12)	2	45	20.6
34	Rps12 (ribosomal protein S12)	3	20.7	12.5

2 entries from above, limited to “viability (ATP), % of control”.
Cmklr2 (chemerin chemokine-like receptor 2) #2 = 60
Cmklr2 (chemerin chemokine-like receptor 2) #3 = 61.1
